Reference: patent publication US20060240048A1 (priority 2002, published 2006)
Read-outs that look alike come from different tables or passages of the source. Some results were stated once for a whole list of compounds, not compound by compound. For at least one compound, name, drawing or mass did not settle the structure.

Amino acid sequences for entries named in this document (tags omitted).
UniProt P34972, whole entry: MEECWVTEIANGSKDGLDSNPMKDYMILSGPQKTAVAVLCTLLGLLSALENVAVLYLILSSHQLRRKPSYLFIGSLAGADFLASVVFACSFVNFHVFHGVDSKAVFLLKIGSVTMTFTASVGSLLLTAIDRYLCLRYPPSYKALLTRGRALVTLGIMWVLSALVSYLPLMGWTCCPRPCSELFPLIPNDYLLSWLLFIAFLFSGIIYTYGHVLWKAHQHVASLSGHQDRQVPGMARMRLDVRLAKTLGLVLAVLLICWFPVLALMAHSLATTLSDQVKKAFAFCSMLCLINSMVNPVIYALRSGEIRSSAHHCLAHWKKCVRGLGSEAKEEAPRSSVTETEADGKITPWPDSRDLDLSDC

Target: T1, human cannabinoid CB2 receptor (Homo sapiens, UniProt P34972)
T1 construct: expressed in transfected cells; host or cells: Saccharomyces cerevisiae strain MMY23
Assay: Cannabinoid CB2 receptor agonist activity, yeast reporter assay (FDGlu fluorescence)
Type: cell-based
Method: The cannabinoid CB2 receptor agonist activity of the compounds of formula (I) was determined in accordance with the following experimental method.
Yeast (Saccharomyces cerevisiae) cells expressing the human cannabinoid CB2 receptor were generated by integration of an expression cassette into the ura3 chromosomal locus of yeast strain MMY23. This cassette consisted of DNA sequence encoding the human CB2 receptor flanked by the yeast GPD promoter to the 5′ end of CB2 and a yeast transcriptional terminator sequence to the 3′ end of CB2. MMY23 expresses a yeast/mammalian chimeric G-protein alpha subunit in which the C-terminal 5 amino acids of Gpa1 are replaced with the C-terminal 5 amino acids of human Gαi3 (as described in Brown et al. (2000), Yeast 16:11-22). Cells were grown at 30° C. in liquid Synthetic Complete (SC) yeast media (Guthrie and Fink (1991), Methods in Enzymology, Vol. 194) lacking uracil, tryptophan, adenine and leucine to late logarithmic phase (approximately 6 OD600/ml).
Agonists were prepared as 10 mM stocks in DMSO. […] Agonist solutions in DMSO (1% final assay volume) were transferred into black, clear bottom, microtitre plates from NUNC (96- or 384-well). […] This mixture (50 ul per well for 384-well plates, 200 ul per well for 96-well plates) was added to agonist in the assay plates (Multidrop 384, Labsystems). After incubation at 30° C. for 24 hours, fluorescence resulting from degradation of FDGlu to fluorescein due to exoglucanase, an endogenous yeast enzyme produced during agonist-stimulated cell growth, was determined using a Spectrofluor microtitre plate reader (Tecan; excitation wavelength: 485 nm; emission wavelength: 535 nm). Fluorescence was plotted against compound concentration and iteratively curve fitted using a four parameter fit to generate a concentration effect value.
where Max[compound X] and Min[compound X] are the fitted maximum and minimum respectively from the concentration effect curve for compound X, and Max[HU210] and Min[HU210] are the fitted maximum and minimum respectively from the concentration effect curve for (6aR,10aR)-3-(1,1′-Dimethylheptyl)-6a,7,10,10a-tetrahydro-1-hydroxy-6,6-dimethyl-6H-dibenzo[b,d]pyran-9-methanol (HU210; available from Tocris). Equieffective molar ratio (EMR) values were calculated from the equation EMR=EC50 [compound X]/EC50 [HU210]
Where EC50 [compound X] is the EC50 of compound X and EC50 [HU210] is the EC50 of HU210.

[1] = read-out: EC50 at the cloned human cannabinoid CB2 receptor; yeast (S. cerevisiae) expressing human CB2; agonist
[2] = yeast (S. cerevisiae) expressing human CB2; agonist; read-out: EC50 at the cloned human cannabinoid CB2 receptor

Compound | EC50 [1] [nM] | efficacy value (Emax) at the cloned human cannabinoid CB2 receptor (Emax relative to HU210) [%] | EC50 [2] [nM]
CC(C)c1cc(N(C)c2ccc(Cl)c(Cl)c2)ncc1C(=O)NCC1CCOCC1 [Example 44, 6-[(3,4-Dichloro-phenyl)-methyl-amino]-4-isopropyl-N-(tetrahydro-pyran-4-ylmethyl)-nicotinamide] | < 1000 | – | –
COCCNC(=O)c1cnc(Nc2cccc(Cl)c2)cc1C(C)C [Example 57, 6-(3-Chloro-phenylamino)-4-isopropyl-N-(2-methoxy-ethyl)-nicotinamide] | < 1000 | – | –
CC(C)c1cc(Nc2ccc(C#N)c(C(F)(F)F)c2)ncc1C(=O)NCC1CCOCC1 [Example 96, 6-(4-Cyano-3-trifluoromethyl-phenylamino)-4-isopropyl-N-(tetrahydro-pyran-4-ylmethyl)-nicotinamide] | < 1000 | – | –
CC(C)c1cc(Nc2ccc(C#N)cc2F)ncc1C(=O)NCC1CCOCC1 [Example 97, 6-(4-Cyano-2-fluoro-phenylamino)-4-isopropyl-N-(tetrahydro-pyran-4-ylmethyl)-nicotinamide] | < 1000 | – | –
CC(C)CNC(=O)c1cnc(Nc2cccc(Br)c2)cc1C(F)(F)F [Example 121, N-Isobutyl-6-(3-bromo-phenylamino)-4-trifluoro-methyl-nicotinamide] | – | > 50 | < 300
O=C(NCC1CCCCC1)c1cnc(Nc2cccc(Cl)c2Cl)cc1C(F)(F)F [Example 136, N-Cyclohexylmethyl-(2,3-dichloro-phenylamino)-4-tri-fluoromethyl-nicotinamide] | – | > 50 | < 300
COc1ccc(Cl)cc1Nc1cc(C(F)(F)F)c(C(=O)NCC2CCOCC2)cn1 [Example 168, N-(Tetrahydropyran-4-yl-methyl)-6-(2-methoxy-5-chloro-phenylainino)-4-tri-fluoromethyl-nicotinamide] | – | > 50 | –
O=C(NCC1CCCCCC1)c1cnc(Nc2cc(Cl)cc(Cl)c2)cc1C(F)(F)F [Example 175, N-Cycloheptylmethyl-6-(3,5-dichloro-phenyiamino)-4-trifluoromethyl-nicotinamide] | < 1000 | – | –
CC(C)c1cc(Nc2ccc(OC(F)(F)F)cc2Br)ncc1C(=O)NCC1CCC1 [Example 291, 6-(2-Bromo-4-trifluoromethoxy-phenylamino)-N-cyclobutylmethyl-4-isopropyl-nicotinamide] | < 1000 | – | –
CC(C)c1cc(Nc2ccc(Br)c(C(F)(F)F)c2)ncc1C(=O)NCC1CCOCC1 [Example 294, 6-(4-Bromo-3-trifluoromethyl-phenylamino)-4-isopropyl-N-(tetrahydropyran-4-ylmethyl)-nicotinamide] | < 1000 | – | –
Cc1cccc(Nc2cc(C(C)C)c(C(=O)NCC3CCOCC3)cn2)c1C#N [Example 303, 6-(2-Cyano-3-methyl-phenylamino)-4-isopropyl-N-(tetrahydropyran-4-ylmethyl)-nicotinamide] | < 1000 | – | –
N-(1,1-Dioxo-tetrahydro-thio- phen-3-ylmethyl)-6-(2,4-di- chloro-phenylamino)-4- [Example 145] | – | > 50 | < 300
N-(Tetrahydropyran-4-yl- methyl)-6-(3-fluoro-phenyl)- 4-trifluoromethyl- nicotinamide [Example 126] | – | > 50 | < 300
